Results as given in PubChem BioAssay AID624297 (National Center for Advancing Translational Sciences (NCATS), 2012).
About 6,200 (1.8%) of roughly 340,000 compounds were called active. This list was built around the results that the source calls inconclusive (neither active nor inactive); the mix of calls is not that of the screen. Calls come from the whole dose curve; as a rule, active = well fitted activation curve with a large enough effect; inconclusive = small, poorly fitted or top-dose-only effect; inactive = no such curve, though single readings can be large or run the other way. A potency beside an inconclusive call is a rough fit, not a confirmed value.

Test: A quantitative high throughput screen for small molecules that induce DNA re-replication in SW480 colon adenocarcinoma cells. Note: nearly all actives have a fitted effect of over 55% in size.
Settings: Hoechst DNA content imaging, 48 h; series mostly up to 46.1 µM
How it was run: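 Treated cells incubate 48 hr (37 C, 5% CO2), are stained 40 min with Hoechst, and nuclear fluorescence is enumerated; a rise in nuclei with high DNA signal marks re-replication.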
Potency is the fitted concentration of half-maximal effect.

Row | SMILES | Potency
1 | COc1ccccc1CN(C(=O)CNC(=O)c1ccco1)C(C(=O)NCC1CCCO1)c1ccc(OC)c(OC)c1 (stereo unspecified) | inactive
2 | O=C1/C(=C/c2ccc(F)cc2)SC(=S)N1CCCC(=O)N1CCCCC1CCO (stereo unspecified) | inconclusive: 3.66 µM [activator, full curve, poor fit]
3 | O=c1c(Cl)c(NCc2ccccc2Cl)cnn1C12CC3CC(CC(C3)C1)C2 | inconclusive: 23.1 µM [activator, single point]
4 | CC(=O)c1c(C)[nH]c(C(=O)Nc2nccs2)c1C | inconclusive: 16.4 µM [activator, single point]
5 | Cc1cccc(C(=O)NC(=S)NNC(=O)c2ccccc2Cl)c1 | inactive
6 | O=C(NC(=S)Nc1nc(-c2ccc(Br)cc2)cs1)c1ccco1 | inactive
7 | CC(=O)Oc1ccc(C23c4ccccc4C2(OC(C)=O)c2cc(OC(C)=O)ccc23)cc1 (stereo unspecified) | active: 18.4 µM
8 | CCCC(C)NC(=O)CSCc1ccc(OC)cc1 (stereo unspecified) | inconclusive: 0.0073 µM [activator, full curve, poor fit]
9 | O=C1NC2c3c(I)sc(I)c3C(=O)C2O1 (stereo unspecified) | active: 16.4 µM
10 | Cc1ccc2occ(/C=N/NC(=O)c3ccc(Cl)cc3)c(=O)c2c1 | inactive
11 | N#C/C(=C\C=C\c1ccccc1)C(=O)NCc1cccnc1 | inactive
12 | CCOC(=O)C1CCN(Cc2ccccc2C(F)(F)F)CC1 | inactive
13 | Cc1ccc(C)c(N2CCN(C(=O)CCCn3c(=O)c4cccn4c4cccnc43)CC2)c1 | inconclusive: 29.1 µM [activator, single point]
14 | CN(C)Cc1nnnn1-c1cccc(-n2nnnc2CN(C)C)c1 | inconclusive: 18.4 µM [activator, single point]
15 | C=CCOc1ccc(/C=N/O)cc1Cl | inactive
16 | CCCOc1nc2c(c(=O)n(C)c(=O)n2C)n1C | inactive
17 | O=C(CCn1cnnn1)Nc1cccc(F)c1 | inactive
18 | OCCN1CCN(C2CCC(c3ccc(F)cc3)c3ccc(F)cc32)CC1 (stereo unspecified) | inconclusive: 16.4 µM [activator, single point]
19 | CC(C)(C)NC(=O)C(c1ccncc1)N(Cc1ccc(F)cc1)C(=O)c1ccc(-c2ccccc2)[nH]1 (stereo unspecified) | inconclusive: 29.1 µM [activator, single point]
20 | Cc1ccccc1CC(=O)N1CC(C)OC(C)C1 (stereo unspecified) | inconclusive: 6.51 µM [activator, single point]
21 | C=CCC[C@@H](Cc1ccc(F)cc1)C(=O)O[C@H](CNC(=O)[C@@H](CC=C)CC(=O)N[C@H](CO)Cc1ccccc1)c1ccccc1 | inconclusive: 0.517 µM [activator, single point]
22 | COc1ccc(CCNC(=O)CNC(=O)c2nn(-c3ccc(OC)c(OC)c3)c(=O)c3ccccc23)cc1OC | inconclusive: 2.82 µM [activator, single point]
23 | O=C1C=CC(=O)N1Cc1ccccc1 | inconclusive: 11.6 µM [activator, partial curve, poor fit]

Row | SMILES | Potency
24 | Cc1nn2c(NCCN(C)C)c3c(nc2c1-c1ccccc1)CCCC3 | inconclusive: 29.1 µM [activator, single point]
25 | CC(Sc1nc(N)c2c3c(sc2n1)CSC(C)(C)C3)C(=O)Nc1ccccc1 (stereo unspecified) | inconclusive: 6.51 µM [activator, partial curve, poor fit]
26 | COC(=O)c1ccc(Oc2ccc(C(C)(C)C)cc2)c([N+](=O)[O-])c1 | inconclusive: 29.1 µM [activator, partial curve, poor fit]
27 | C[C@@H](C(=O)N=c1sc2ccccc2n1C)N1C(=O)C2CC=CCC2C1=O (stereo partly specified) | inactive
28 | CSc1nc2ccccc2cc1/C=C(\C#N)c1cccc(C)c1 | inconclusive: 29.1 µM [activator, single point]
29 | CCC(C)(C)n1nnnc1C(C(C)C)N(Cc1ccco1)Cc1cc2cc3c(cc2[nH]c1=O)OCO3 (stereo unspecified) | inconclusive: 29.1 µM [activator, single point]
30 | CC1C/C(=C/c2cccn2C)C(=O)/C(=C/c2cccn2C)C1 (stereo unspecified) | inconclusive: 29.1 µM [activator, single point]
31 | Cc1ccc(S(=O)(=O)NCCC2=CCCCC2)cc1C(N)=O | inconclusive: 20.6 µM [activator, partial curve, poor fit]
32 | CN=C(C)c1c(O)c2ccccc2oc1=O | inactive
33 | O=C(NNC(=O)c1ccccc1O)c1cccc(Br)c1 | inconclusive: 29.1 µM [activator, single point]
34 | COc1ccccc1NC(=O)CSc1n[nH]c(Cc2ccccc2)n1 | inconclusive: 25.9 µM [activator, single point]
35 | COc1ccc(/C(N)=N/OC(=O)c2cccs2)cc1OC | inconclusive: 29.1 µM [activator, partial curve, poor fit]
36 | Cc1ccccc1OCC(=O)OCC(=O)NCc1ccc2c(c1)OCO2 | inactive
37 | COc1cc(OC)c2c(-c3cccc(-c4ccc(OC)c(F)c4)c3)cc(=O)oc2c1 | active: 1.46 µM
38 | COc1ccc(OC)c(COC(=O)c2cc([N+](=O)[O-])ccc2N2CCOCC2)c1 | inconclusive: 6.51 µM [activator, full curve, poor fit]
39 | O=C(COC(=O)c1ccc2c(c1)OCCO2)NCCc1ccccc1 | inactive
40 | COc1ccc(NC(=O)Cn2nnc(C(=O)NCc3ccccc3)c2N)c(OC)c1 | inconclusive: 29.1 µM [activator, single point]
41 | COC(=O)c1sc(NC(=S)NC(=O)c2cccc(Br)c2)nc1C | inactive
42 | COc1ccc(-n2c(COc3cccc4ccccc34)nnc2SCC(=O)NCc2ccco2)cc1 | inconclusive: 7.31 µM [activator, partial curve, poor fit]
43 | O=C(O)C/C(=C\c1cc2c(cc1Br)OCO2)c1nc2ccccc2s1 | inconclusive: 25.9 µM [activator, single point]
44 | CCCC1CCc2c(sc(NC(=O)OCC)c2C#N)C1 (stereo unspecified) | active: 10.3 µM
45 | CC(=O)c1cccc(NC(=O)Nc2ccc3c(c2)OCO3)c1 | inactive
46 | COc1ccccc1-c1cn[nH]c1-c1ccc(OCc2ccc(F)cc2)cc1O | inactive

Looked up by structure from the entries so far, 3 records:
Row | SMILES | Potency
29 | CCC(C)(C)n1nnnc1C(C(C)C)N(Cc1ccco1)Cc1cc2cc3c(cc2[nH]c1=O)OCO3 (stereo unspecified) | inconclusive: 29.1 µM [activator, single point]
36 | Cc1ccccc1OCC(=O)OCC(=O)NCc1ccc2c(c1)OCO2 | inactive
44 | CCCC1CCc2c(sc(NC(=O)OCC)c2C#N)C1 (stereo unspecified) | active: 10.3 µM
